Reference: the supplement of paper PMC12067093, “Discovery and optimisation of a covalent ligand for TRIM25 and its application to targeted protein ubiquitination” (Chemical Science, 2025)
This is one part of the list.

Amino acid sequences for entries named in this document (tags omitted). A change or cut given only in a name is not applied to a line headed by its entry.
UniProt Q8IZ73: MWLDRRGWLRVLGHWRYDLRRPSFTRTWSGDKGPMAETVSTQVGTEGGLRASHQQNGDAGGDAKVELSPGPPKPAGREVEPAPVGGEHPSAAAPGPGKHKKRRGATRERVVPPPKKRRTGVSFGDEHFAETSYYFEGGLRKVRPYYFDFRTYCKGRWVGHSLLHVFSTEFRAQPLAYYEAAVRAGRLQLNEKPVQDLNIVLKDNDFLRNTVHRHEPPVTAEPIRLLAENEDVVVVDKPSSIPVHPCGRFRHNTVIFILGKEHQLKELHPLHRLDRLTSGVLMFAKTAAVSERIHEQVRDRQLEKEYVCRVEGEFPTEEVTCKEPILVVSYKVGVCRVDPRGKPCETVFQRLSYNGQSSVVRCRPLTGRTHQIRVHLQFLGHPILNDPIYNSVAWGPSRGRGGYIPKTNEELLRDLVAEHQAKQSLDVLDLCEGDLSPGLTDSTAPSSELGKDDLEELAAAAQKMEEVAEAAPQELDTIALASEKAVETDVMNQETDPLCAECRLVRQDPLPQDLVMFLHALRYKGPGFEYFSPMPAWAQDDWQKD
UniProt Q9Y265, whole entry, looked up: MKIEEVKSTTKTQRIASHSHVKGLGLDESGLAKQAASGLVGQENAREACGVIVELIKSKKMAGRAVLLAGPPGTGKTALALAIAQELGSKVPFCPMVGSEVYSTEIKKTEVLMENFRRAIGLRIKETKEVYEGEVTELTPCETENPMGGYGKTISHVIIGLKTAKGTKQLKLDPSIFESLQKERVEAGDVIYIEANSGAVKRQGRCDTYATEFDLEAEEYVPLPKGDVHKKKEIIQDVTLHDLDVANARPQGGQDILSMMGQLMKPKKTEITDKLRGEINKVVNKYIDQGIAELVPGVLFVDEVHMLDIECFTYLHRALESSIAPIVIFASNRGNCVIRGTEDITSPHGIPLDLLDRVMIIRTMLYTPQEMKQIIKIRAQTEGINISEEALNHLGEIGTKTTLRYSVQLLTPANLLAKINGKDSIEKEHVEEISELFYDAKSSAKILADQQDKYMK
UniProt Q5JTH9: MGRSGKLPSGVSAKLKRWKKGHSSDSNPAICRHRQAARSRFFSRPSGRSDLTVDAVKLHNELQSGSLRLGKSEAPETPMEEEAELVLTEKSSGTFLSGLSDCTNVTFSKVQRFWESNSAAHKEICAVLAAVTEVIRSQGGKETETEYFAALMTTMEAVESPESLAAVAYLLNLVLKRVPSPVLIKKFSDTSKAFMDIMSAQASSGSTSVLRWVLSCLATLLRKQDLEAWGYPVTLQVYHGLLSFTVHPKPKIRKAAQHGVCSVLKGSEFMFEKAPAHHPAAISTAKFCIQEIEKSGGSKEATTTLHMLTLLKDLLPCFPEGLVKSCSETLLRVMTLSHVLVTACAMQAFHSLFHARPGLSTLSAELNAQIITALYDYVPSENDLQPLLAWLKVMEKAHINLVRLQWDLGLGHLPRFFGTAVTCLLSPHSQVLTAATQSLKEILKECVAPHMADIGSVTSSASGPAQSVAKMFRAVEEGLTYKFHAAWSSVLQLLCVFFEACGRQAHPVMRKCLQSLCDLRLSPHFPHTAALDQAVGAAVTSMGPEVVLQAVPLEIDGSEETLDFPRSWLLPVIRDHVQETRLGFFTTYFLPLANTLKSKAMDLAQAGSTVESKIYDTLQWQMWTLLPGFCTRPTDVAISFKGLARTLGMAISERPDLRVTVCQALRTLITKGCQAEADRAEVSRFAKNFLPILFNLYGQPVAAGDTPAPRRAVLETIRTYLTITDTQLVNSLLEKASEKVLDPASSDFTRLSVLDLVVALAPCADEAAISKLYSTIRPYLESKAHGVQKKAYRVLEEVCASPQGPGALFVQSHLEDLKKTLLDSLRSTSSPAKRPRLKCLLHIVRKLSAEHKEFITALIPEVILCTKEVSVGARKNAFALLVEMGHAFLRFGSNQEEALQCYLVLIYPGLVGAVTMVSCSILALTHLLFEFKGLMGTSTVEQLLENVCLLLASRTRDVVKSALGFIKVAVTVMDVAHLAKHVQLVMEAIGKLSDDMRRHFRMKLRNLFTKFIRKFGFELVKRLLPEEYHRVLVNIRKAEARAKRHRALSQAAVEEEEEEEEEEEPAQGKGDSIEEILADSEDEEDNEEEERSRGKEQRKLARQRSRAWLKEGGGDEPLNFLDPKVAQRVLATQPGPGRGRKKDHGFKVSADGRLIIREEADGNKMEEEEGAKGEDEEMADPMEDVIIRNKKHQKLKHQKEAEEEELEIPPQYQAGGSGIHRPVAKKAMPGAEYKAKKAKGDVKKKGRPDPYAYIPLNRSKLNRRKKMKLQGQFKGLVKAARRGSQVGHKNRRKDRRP
UniProt P23443: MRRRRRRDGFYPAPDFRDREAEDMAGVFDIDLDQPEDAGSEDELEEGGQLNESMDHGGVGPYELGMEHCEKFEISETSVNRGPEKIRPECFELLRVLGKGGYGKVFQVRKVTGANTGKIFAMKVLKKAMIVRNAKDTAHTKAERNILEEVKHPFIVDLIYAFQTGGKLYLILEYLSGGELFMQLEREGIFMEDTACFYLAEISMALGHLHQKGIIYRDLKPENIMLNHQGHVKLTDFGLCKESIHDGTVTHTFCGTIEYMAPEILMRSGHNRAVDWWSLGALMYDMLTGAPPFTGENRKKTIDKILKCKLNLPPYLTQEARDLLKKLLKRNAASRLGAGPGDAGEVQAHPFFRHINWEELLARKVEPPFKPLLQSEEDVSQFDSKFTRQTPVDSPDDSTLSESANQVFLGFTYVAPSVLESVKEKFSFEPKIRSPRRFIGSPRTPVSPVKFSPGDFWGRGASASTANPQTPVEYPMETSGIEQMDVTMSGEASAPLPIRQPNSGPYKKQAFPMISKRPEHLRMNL
UniProt O43159: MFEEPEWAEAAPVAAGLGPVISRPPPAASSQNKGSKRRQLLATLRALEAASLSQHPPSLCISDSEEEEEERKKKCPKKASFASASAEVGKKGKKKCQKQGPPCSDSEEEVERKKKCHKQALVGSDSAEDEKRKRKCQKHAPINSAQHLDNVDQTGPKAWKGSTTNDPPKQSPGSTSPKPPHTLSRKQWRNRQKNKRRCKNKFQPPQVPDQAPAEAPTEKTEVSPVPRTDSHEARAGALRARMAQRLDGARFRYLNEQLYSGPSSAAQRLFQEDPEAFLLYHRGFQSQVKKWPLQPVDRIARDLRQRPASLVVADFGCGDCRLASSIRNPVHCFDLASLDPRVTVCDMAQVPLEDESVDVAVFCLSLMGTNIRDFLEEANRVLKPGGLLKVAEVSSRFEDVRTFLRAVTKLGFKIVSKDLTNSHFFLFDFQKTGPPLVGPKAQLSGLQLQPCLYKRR
UniProt Q8N122, whole entry, looked up: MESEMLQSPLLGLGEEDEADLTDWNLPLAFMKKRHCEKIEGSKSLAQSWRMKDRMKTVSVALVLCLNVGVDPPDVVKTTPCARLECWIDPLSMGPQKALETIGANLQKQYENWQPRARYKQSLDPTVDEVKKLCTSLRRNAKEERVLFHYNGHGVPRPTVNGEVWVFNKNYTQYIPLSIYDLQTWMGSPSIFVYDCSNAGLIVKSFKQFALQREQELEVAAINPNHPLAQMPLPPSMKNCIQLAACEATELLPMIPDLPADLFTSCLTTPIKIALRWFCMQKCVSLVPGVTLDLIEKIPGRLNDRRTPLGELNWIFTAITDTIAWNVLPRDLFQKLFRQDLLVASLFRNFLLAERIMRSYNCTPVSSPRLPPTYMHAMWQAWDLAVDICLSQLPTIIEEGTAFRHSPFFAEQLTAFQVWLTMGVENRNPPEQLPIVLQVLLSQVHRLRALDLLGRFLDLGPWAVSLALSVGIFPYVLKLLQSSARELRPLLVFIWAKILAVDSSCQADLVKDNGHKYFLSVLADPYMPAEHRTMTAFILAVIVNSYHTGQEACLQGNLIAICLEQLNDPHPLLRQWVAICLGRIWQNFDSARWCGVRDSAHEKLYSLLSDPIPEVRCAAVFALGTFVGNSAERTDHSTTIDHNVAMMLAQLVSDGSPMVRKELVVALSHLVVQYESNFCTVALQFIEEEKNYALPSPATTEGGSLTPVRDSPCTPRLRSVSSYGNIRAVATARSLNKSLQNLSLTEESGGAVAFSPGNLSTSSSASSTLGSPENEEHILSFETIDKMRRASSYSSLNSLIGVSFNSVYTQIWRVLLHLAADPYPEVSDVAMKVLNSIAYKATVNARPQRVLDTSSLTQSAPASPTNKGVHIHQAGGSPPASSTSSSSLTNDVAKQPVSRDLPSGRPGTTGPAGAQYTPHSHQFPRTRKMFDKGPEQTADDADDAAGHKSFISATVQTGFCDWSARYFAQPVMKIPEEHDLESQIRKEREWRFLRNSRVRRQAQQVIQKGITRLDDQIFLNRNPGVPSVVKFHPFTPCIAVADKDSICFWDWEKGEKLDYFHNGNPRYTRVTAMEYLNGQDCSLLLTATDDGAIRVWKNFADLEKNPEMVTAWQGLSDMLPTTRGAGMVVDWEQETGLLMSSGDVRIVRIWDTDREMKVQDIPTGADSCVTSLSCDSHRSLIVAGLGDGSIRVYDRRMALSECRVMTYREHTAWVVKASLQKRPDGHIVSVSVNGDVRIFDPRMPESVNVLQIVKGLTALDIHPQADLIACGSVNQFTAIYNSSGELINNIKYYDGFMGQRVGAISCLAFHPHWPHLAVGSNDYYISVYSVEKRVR
UniProt P19793: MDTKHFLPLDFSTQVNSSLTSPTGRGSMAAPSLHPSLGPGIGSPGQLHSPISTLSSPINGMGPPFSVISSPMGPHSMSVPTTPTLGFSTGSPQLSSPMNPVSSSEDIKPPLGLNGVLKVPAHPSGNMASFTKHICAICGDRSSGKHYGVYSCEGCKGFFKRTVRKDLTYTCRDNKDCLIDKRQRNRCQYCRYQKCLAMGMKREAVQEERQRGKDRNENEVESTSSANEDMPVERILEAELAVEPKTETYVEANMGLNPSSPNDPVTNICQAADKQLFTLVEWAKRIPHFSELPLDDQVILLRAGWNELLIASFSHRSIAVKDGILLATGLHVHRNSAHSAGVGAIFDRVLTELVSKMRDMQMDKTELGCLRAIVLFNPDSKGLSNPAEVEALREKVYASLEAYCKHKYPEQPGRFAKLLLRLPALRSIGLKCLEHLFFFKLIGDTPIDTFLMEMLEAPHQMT
UniProt O75582, whole entry, looked up: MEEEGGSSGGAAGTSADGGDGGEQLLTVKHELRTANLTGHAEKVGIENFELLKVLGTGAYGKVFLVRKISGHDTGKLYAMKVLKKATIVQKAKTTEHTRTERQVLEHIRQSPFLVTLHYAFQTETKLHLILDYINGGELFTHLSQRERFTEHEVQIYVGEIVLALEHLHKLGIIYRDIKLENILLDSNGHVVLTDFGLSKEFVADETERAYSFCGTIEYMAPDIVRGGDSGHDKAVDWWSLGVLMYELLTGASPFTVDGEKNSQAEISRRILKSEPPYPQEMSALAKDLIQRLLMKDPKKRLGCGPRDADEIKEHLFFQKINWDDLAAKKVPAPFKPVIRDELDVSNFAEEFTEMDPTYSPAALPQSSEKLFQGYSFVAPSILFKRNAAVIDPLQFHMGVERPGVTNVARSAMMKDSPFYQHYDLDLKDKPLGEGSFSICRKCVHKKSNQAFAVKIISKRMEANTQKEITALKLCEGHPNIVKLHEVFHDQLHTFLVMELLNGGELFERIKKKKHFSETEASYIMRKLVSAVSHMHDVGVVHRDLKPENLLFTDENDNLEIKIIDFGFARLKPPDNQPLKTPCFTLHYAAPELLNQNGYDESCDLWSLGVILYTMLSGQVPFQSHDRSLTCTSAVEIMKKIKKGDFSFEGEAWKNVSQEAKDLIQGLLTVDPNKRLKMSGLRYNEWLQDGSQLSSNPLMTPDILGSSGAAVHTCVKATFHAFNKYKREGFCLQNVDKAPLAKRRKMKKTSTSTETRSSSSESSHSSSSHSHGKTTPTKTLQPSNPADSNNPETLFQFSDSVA
UniProt P31350, whole entry, looked up: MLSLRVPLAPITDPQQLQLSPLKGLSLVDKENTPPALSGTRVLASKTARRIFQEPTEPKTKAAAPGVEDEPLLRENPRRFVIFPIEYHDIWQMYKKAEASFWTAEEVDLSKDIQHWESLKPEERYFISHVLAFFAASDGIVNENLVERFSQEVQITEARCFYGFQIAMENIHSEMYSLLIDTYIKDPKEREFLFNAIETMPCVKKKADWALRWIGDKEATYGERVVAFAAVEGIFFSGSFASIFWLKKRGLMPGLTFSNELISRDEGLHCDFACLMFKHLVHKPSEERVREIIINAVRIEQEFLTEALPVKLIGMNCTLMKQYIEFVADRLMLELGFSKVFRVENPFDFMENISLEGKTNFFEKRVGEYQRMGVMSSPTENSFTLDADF

Compound: Cc1cc(ccc1-c1ccccc1)C(=O)N1CCCN(CC1)C(=O)CCl [compound 10]
Assay: probe-labelled cysteine peptide fold change vs DMSO (competition) (log2 fold change); higher = less target engagement (more negative = stronger competition)
Details: THP-1, incubation time: 4 h
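Note: competitive profiling in live THP-1 cells: cysteine peptides tagged with an iodoacetamide desthiobiotin (IA-DTB) probe, intensity after compound treatment relative to DMSO-treated cells.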

Target | probe-labelled cysteine peptide fold change (10 µM) | probe-labelled cysteine peptide fold change (50 µM)
RPUSD2_Q8IZ73_246_LLAENEDVVVVDKPSSIPVHPCGR (UniProt Q8IZ73) | -0.561 | -1.57
RUVBL1_Q9Y265_49_EACGVIVELIK (UniProt Q9Y265) | -0.171 | 0.0837
SAFB2_Q14151_672_ERLQLECQR (UniProt Q14151) | -0.167 | -0.742
RRP12_Q5JTH9_799_VLEEVCASPQGPGALFVQSHLEDLKK (UniProt Q5JTH9) | 0.0169 | -0.0248
RPS21_P63220_56_TYAICGAIR (UniProt P63220) | 0.0519 | -0.0533
RPS6_P62753_12_KLNISFPATGCQK (UniProt P62753) | 0.00268 | 1.18
RUVBL1_Q9Y265_206_CDTYATEFDLEAEEYVPLPK (UniProt Q9Y265) | 0.167 | 0.0823
SAAL1_Q96ER3_366_VLQNMEQCQK (UniProt Q96ER3) | -0.193 | -0.171
RPS3_P23396_134_GCEVVVSGK (UniProt P23396) | 0.0199 | 0.0174
RPS6KB1_P23443_90_IRPECFELLR (UniProt P23443) | -0.152 | -0.0416
RPS17_P08708_35_RVCEEIAIIPSKK (UniProt P08708) | -0.52 | 0.294
RRP8_O43159_332_NPVHCFDLASLDPR (UniProt O43159) | 0.114 | 0.128
RPTOR_Q8N122_1168_VQDIPTGADSCVTSLSCDSHR (UniProt Q8N122) | -0.0217 | -0.0357
RPS20_P60866_70_TPCGEGSK (UniProt P60866) | -0.14 | -0.0376
RXRA_P19793_195_CLAMGMK (UniProt P19793) | -0.154 | -0.22
SAMHD1_Q9Y3Z3_177_QLGGGYYVFPGASHNRFEHSLGVGYLAGCLVHALGEK (UniProt Q9Y3Z3) | -0.00777 | 0.0217
RRM1_P23921_254_SAGGIGVAVSCIR (UniProt P23921) | 0.106 | 0.276
SAMHD1_Q9Y3Z3_51_TWGPEQVCSFLR (UniProt Q9Y3Z3) | 0.115 | 0.161
RRP12_Q5JTH9_673_GCQAEADR (UniProt Q5JTH9) | -0.188 | 0.135
RPS6KA5_O75582_731_YKREGFCLQNVDKAPLAK (UniProt O75582) | 0.0351 | -0.384
RPS8_P62241_71+72_LDVGNFSWGSECCTR (UniProt P62241) | -0.311 | -0.546
RSBN1L_Q6PCB5_610_DVICFHAEDFLEVVQR (UniProt Q6PCB5) | 0.0768 | 0.0423
RRM2_P31350_270+274_DEGLHCDFACLMFK (UniProt P31350) | 0.112 | -0.0779

Full records from above:
RPS6KB1_P23443_90_IRPECFELLR (UniProt P23443) is listed with probe-labelled cysteine peptide fold change (10 µM) = -0.152; probe-labelled cysteine peptide fold change (50 µM) = -0.0416
RPS21_P63220_56_TYAICGAIR (UniProt P63220) is listed with probe-labelled cysteine peptide fold change (10 µM) = 0.0519; probe-labelled cysteine peptide fold change (50 µM) = -0.0533
